Values quoted from earlier work as cited in patent publication US20110243993A1, “Method for diagnosing and creating immunogenic tolerance in contact allergy and other epithelial immunotoxicological ailments” (priority 2010, published 2011).
Some of these results come from one statement about several compounds together. For at least one compound, name, drawing or mass did not settle the structure.

conditions: class used to choose the test concentration; cited from earlier work

| Structure (SMILES) | sensitizer class by EC3-value |
| --- | --- |
| CCCc1ccc(O)c(OC)c1 [Dihydroeugenol, 2-Methoxy-4-propylphenol] | Moderate (For moderate sensitizers (1%<EC3<10%)) |
| O=C1C=CC(=O)C=C1 [p-Benzoquinone] | Extreme (For extreme sensitizers (EC3<0.1%)) |
| CC(C=O)=Cc1ccccc1 [α-Methyl-cinnamicaldehyde] | Moderate (For moderate sensitizers (1%<EC3<10%)) |
| Nc1ccc(N)cc1 [p-Phenylenediamine] | Strong (For strong sensitizers (0.1%<EC3<1%)) |
